## Results of single-concentration screens

Each number is a percent effect as filed. How 0% and 100% were set is not recorded. Most values in the screen are low, and negative values occur. The compounds are a random part of those screened.

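Assay of Toxoplasma gondii numbers, read through their beta-galactosidase reporter with a colour substrate. Concentration: 50 µM. The record gives no direction; the compounds picked for IC50 retests had high values, so higher reads as fewer parasites. Size under these conditions: about 18,000 compounds, about 170 of them at 50% or above in at least one test.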

* CN1CCOC(C(=O)Nc2cc(Cl)cc3c2OCC3)C1 (centres unmarked) | 8.837%
* CC(C)n1ccnc1CN1CCN(c2nc[nH]n2)CC1 | -3.87%
* CN1CCN(C(=O)C2COc3ccccc3O2)CC1=O (centres unmarked) | 6.197%
* CC1CN(Cc2csnn2)C(C)(C)CO1 (centres unmarked) | 0.7354%
* CCNC(=O)CN1CCCC(c2nccn2CC)C1 (centres unmarked) | 95.83%
* CCCn1nnnc1Cn1ccccc1=O | 5.864%
* Cn1ccc(CNc2ccc(OC(F)F)cn2)c1 | 12.82%
* NCc1nc2c(s1)CCCC2 | -5.61%
* Cc1cc(NC2CCS(=O)(=O)C2)nc2ccccc12 (centres unmarked) | -6.751%
* CCC(=O)c1ccc(C(=O)OC)cc1 | -5.467%
* COc1ccc(N2CCN(CCCN)CC2)cc1 | -6.271%
* CC[C@@H]1C[C@H]1NC(=O)N1CCC(CS(N)(=O)=O)CC1 | 0.5106%
* CN(C)c1nc(N)nc(CSCc2ccccn2)n1 | 0.02752%
* CCN(CC(N)=O)Cc1ccc(Cl)s1 | -3.483%
* CCc1nccn1CCC(=O)N1CCOCC(O)C1 (centres unmarked) | 10.6%
* CN(C1CCCCC1)S(=O)(=O)N1CCNCC1 | 5.411%
* COc1ncccc1NC(=O)C1CNC(=O)N1 (centres unmarked) | -10.71%
* Cc1nnc(NC(=O)c2ccc3c(c2)OCCO3)s1 | -4.624%
* CN1C(=O)[C@H]2CN(Cc3cc(Cl)ccc3F)C[C@H]2C1=O | -30.33%
* Cc1nn(C)c(N(C)C)c1CNCc1cnn(C)c1 | 17.64%
* Cc1cccc(C(=O)NC2CC(N)C2)n1 (centres unmarked) | 31.34%
* c1cc(C2CCNCC2)n[nH]1 | -3.177%
* CN(C)C(=O)CN(C)C(=O)COc1ccc(Cl)cc1Cl | 21.52%
* N#Cc1ccc(Br)o1 | 3.148%
* COc1ccc2[nH]c(C)nc2c1 | -8.144%
* Cn1cccc1C(=O)NC(=O)CSc1ncccn1 | -8.226%
* c1nc(C2CCCCCN2)no1 (centres unmarked) | -2.923%
* Cc1nc(Cn2cc(Br)cn2)no1 | -0.8115%
* Cc1cc(C)nc(NC(=O)C(C)C)n1 | 3.231%
* N#CCOC(=O)c1ccc(-n2cnnn2)cc1 | -15.83%
* NCc1ccc(N2CCOCC2)c(F)c1 | 4.993%
* C[C@@H](O)CNCc1cnn(-c2ccc(F)cc2)c1 | 0.1845%
* NCC(=O)NCc1ccncc1 | -1.179%
* CCC1c2ccsc2CCN1C(C)=O (centres unmarked) | -3.385%
* Cc1cnc(C(=O)NCCSCc2ccco2)cn1 | -2.508%
* CC(=O)N1CCC2(CCNC2)C1 (centres unmarked) | 3.738%
* N#CCC(=O)Nc1ccccc1I | 0.5556%
* CCc1nc(C)sc1CNC(=O)Cn1nc(C)cc1N | 6.372%
* NCc1noc2c1CCCC2 | -7.222%
* OCC1CCCN(Cc2ccccc2)C1 (centres unmarked) | 4.636%
* O=c1c2ccccc2cnn1CN1CCCC1 | 0.08099%
* CCn1ccc(CN2CCOC(CCOC)C2)n1 (centres unmarked) | 15.47%
* CCc1ccccc1NC(=O)CCN | 11.22%
* CNCC1CCCN1S(=O)(=O)c1ccccc1 (centres unmarked) | 4.551%
* CC(CNC(=O)c1cccc(C#N)c1)N1CCCC1 (centres unmarked) | -11.46%
* COc1ccc(NC(=O)CCN2CCCSCC2)cc1 | 2.727%

4 of the entries, repeated:

| structure | Percent Effect |
|---|---|
| `N#Cc1ccc(Br)o1` | 3.148% |
| `COc1ncccc1NC(=O)C1CNC(=O)N1` (centres unmarked) | -10.71% |
| `NCC(=O)NCc1ccncc1` | -1.179% |
| `CCN(CC(N)=O)Cc1ccc(Cl)s1` | -3.483% |

The values are deposited in ChEMBL (CHEMBL3988442, “University of Dundee, Small-Polar-MMV Screening Library” (2021)).